Measurements as given in PMC9917220.
A weaker result is weaker than the reference pair of the same experiment.

Tested on: human thrombin (Homo sapiens)
Test: CD
Conditions: 0.5 uM thrombin, 5 uM DNA, slight spectral change; Binding Buffer: 50 mM Tris-HCl, 100 mM NaCl, 1 mM MgCl2, pH not stated; folded or branched DNA

## TACAGGCAGTAAGGCCGTGTCATCAGGATGGGCACTTTCCTAGGGCAGGTT [51mer AS2-3]
  binding result: binds more weakly
